This is an account of results in paper PMC8510167.

For this data set, the system named is SigH-His (sigma-H) (Bacillus thuringiensis HD73). As to the kind of experiment: EMSA. Particulars: complete shift at 180 ng/ul SigH-His, reversed by 150x unlabeled specific competitor, no core RNA polymerase mentioned; EMSA: 10 mM Tris-HCl pH 7.5, 0.5 mM DTT, 50 mM NaCl, 500 ng poly(dI:dC), 4% glycerol, 20 ul, 0.02 or 0.015 ug FAM-DNA, 25 C, 20 min; 5% native PAGE in 0.5x TBE; recombinant protein; label: FAM; probe letters rebuilt from the primers and the genome. On the technique in general: A gel shift assay detects complexes by their altered migration in electrophoresis.

The exact form of at least one protein or probe is not confirmed.

Turning to “TTCCATTCCGCGTTTCCTCCTCGTTTCTTTAAAAAGTATTAGCAATTATTTCACTTTAACTTATATTCACGAGGAATGGCGCGTATTCCTGCTAAATTTTCGTAATTTTTCTAAAAAATTAAAATATAATAACTTATCTAAAATTTGACGGAAATTTACTCAAAAAATGGTTGATCGTCATTAATTAAAATACGTTCAATTCTCTTTGCTTTTCCTGTATTTGGATCCACATCAATTAACACTGCACT (double strand) [FAM-PspoVS1 (256 bp)]”, the binding result was “binds”.
